Laboratory results: PubChem BioAssay AID504764 (Drosophila RNAi Screening Center, 2011)

Screen: 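Knock-downs that raise or lower a Notch target reporter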 (primary screen)
Cell system: Drosophila Kc167 cells
Reagent: long dsRNA against Drosophila genes
Timing: about 5 days (4 days dsRNA, then 24 h after transfection)
Conditions: transfection of constitutively active membrane-tethered Notch lacking the extracellular domain, read 24 h later
Detection: 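Light from a Notch-responsive E(spl)m3 luciferase reporter under active Notch, with control-promoter and no-Notch reporter wells to normalise; raw counts from paired wells a and b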
Scale: induced reporter light, run 1, well a and induced reporter light, run 1, well b: higher = more light from the Notch target reporter with active Notch; control promoter light, run 1, well a and control promoter light, run 1, well b: higher = more light from the viral control promoter (cell number, transfection, viability); uninduced reporter light, run 1, well a: higher = more light from the Notch target reporter without active Notch
Active means: 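Hit if the duplicate-averaged log2 ratio of induced to control-promoter light gives a plate-wise z beyond ±2, or induced to uninduced beyond ±1.8; weak-control or discordant-duplicate wells dropped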
Calls: active = modifier hit (raised or lowered Notch signal); inactive = not a hit
The deposit covers about 22,000 reagents; below is an unselected part of those that have a named target and a result. Over the whole deposit, 403 (1.9%) were called active. 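Unnormalised raw counts per well; ratio z-scores behind the hit calls and whether each hit raises or lowers signal are not deposited.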 Unmarked entries are inactive. Reagents against one gene are numbered here. The record does not give: the amount of reagent.

Su(var)3-7 (Suppressor of variegation 3-7) showed induced reporter light, run 1, well a = 1.68e5; induced reporter light, run 1, well b = 1.91e5; control promoter light, run 1, well a = 1.48e5; control promoter light, run 1, well b = 1.83e5; uninduced reporter light, run 1, well a = 13275. RpS4 (Ribosomal protein S4) gave induced reporter light, run 1, well a = 12688; induced reporter light, run 1, well b = 12238; control promoter light, run 1, well a = 15490; control promoter light, run 1, well b = 17040; uninduced reporter light, run 1, well a = 740. CG31100 #1 gave induced reporter light, run 1, well a = 1.24e5; induced reporter light, run 1, well b = 1.16e5; control promoter light, run 1, well a = 1.13e5; control promoter light, run 1, well b = 88060; uninduced reporter light, run 1, well a = 8778. Depletion of CG31100 #2 came out at: induced reporter light, run 1, well a = 76765; induced reporter light, run 1, well b = 69985; control promoter light, run 1, well a = 61085; control promoter light, run 1, well b = 55685; uninduced reporter light, run 1, well a = 4478. Knock-down of CG7985 came out at: induced reporter light, run 1, well a = 1.96e5; induced reporter light, run 1, well b = 2.06e5; control promoter light, run 1, well a = 2.59e5; control promoter light, run 1, well b = 2.71e5; uninduced reporter light, run 1, well a = 16138. After knock-down of mid (midline), the screen gave induced reporter light, run 1, well a = 1.92e5; induced reporter light, run 1, well b = 1.53e5; control promoter light, run 1, well a = 1.72e5; control promoter light, run 1, well b = 1.74e5; uninduced reporter light, run 1, well a = 11065.

Against Prp3 (Precursor RNA processing 3), the entry reads induced reporter light, run 1, well a = 67570; induced reporter light, run 1, well b = 73115; control promoter light, run 1, well a = 59750; control promoter light, run 1, well b = 64545; uninduced reporter light, run 1, well a = 6060. Against Ibf2 (Insulator binding factor 2) the deposit lists induced reporter light, run 1, well a = 88615; induced reporter light, run 1, well b = 1.27e5; control promoter light, run 1, well a = 1.02e5; control promoter light, run 1, well b = 1.22e5; uninduced reporter light, run 1, well a = 7260. After knock-down of nmo (nemo) #1, the screen gave induced reporter light, run 1, well a = 2.21e5; induced reporter light, run 1, well b = 2.18e5; control promoter light, run 1, well a = 2.48e5; control promoter light, run 1, well b = 2.67e5; uninduced reporter light, run 1, well a = 14265. After knock-down of nmo (nemo) #2 the results were induced reporter light, run 1, well a = 1.26e5; induced reporter light, run 1, well b = 1.06e5; control promoter light, run 1, well a = 77790; control promoter light, run 1, well b = 42000; uninduced reporter light, run 1, well a = 8025. dpr14 (defective proboscis extension response 14) showed induced reporter light, run 1, well a = 2.18e5; induced reporter light, run 1, well b = 1.62e5; control promoter light, run 1, well a = 2.75e5; control promoter light, run 1, well b = 2.64e5; uninduced reporter light, run 1, well a = 14295. Depletion of m (miniature) resulted in: induced reporter light, run 1, well a = 98255; induced reporter light, run 1, well b = 85685; control promoter light, run 1, well a = 1.16e5; control promoter light, run 1, well b = 1.04e5; uninduced reporter light, run 1, well a = 6765.

2 of these entries, set out differently:
{"predicted target": "Ibf2 (Insulator binding factor 2)", "reagent no.": 1, "induced reporter light, run 1, well a": 88615, "induced reporter light, run 1, well b": 1.27e5, "control promoter light, run 1, well a": 1.02e5, "control promoter light, run 1, well b": 1.22e5, "uninduced reporter light, run 1, well a": 7260}
{"predicted target": "nmo (nemo)", "reagent no.": 1, "induced reporter light, run 1, well a": 2.21e5, "induced reporter light, run 1, well b": 2.18e5, "control promoter light, run 1, well a": 2.48e5, "control promoter light, run 1, well b": 2.67e5, "uninduced reporter light, run 1, well a": 14265}
